Test results as given in the supplement of paper PMC6078165.
The reference is the same well before dosing, and untreated signal decays as well.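 Fibroblast labels denote human fibroblasts, mainly primary ones from uterus (C12385, HUF), lung (H6013), bone (Hs27A), adrenal (HADF) and skin (WS1), plus mammary HMF and breast cancer-associated Hs343T. Cancer cells are basal-like or mesenchymal-like triple-negative breast cancer lines. A hit is a response shift exceeding 3x replicate standard deviation. The tissue of the other fibroblasts is not given here.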

Tested on: MDAMB468
Assay: relative JC-1 red fluorescence (viability) vs pre-drug, coculture with fibroblast (fraction); higher = more viable cancer cells
Experimental: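 JC-1 labelled TNBC cells cocultured 1:1 (1,500 cells each) with CellTrace Violet stained primary or stromal fibroblasts in 384-well plates in FluoroBrite medium, treated with one of 42 anticancer drugs at 0.1, 1, 10 or 100 uM. JC-1 red fluorescence (mitochondrial integrity in cancer cells only) was read by plate reader every 8 h for 72 h. Values are normalised to each well's pre-drug value. The stock of one drug was tenfold lower, so its dose labels may be too high.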

O=C(O)C(=O)O.[NH-][C@@H]1CCCC[C@H]1[NH-].[Pt+2] [Oxaliplatin]
relative JC-1 red fluorescence
Settings | 8 h | 16 h | 24 h | 32 h | 40 h | 48 h | 56 h | 64 h | 72 h
10 µM, coculture fibroblast: C12385 | 0.8509 | 0.8018 | 0.766 | 0.716 | 0.66 | 0.648 | 0.6133 | 0.582 | 0.564
10 µM, coculture fibroblast: H6013 | 0.8686 | 0.86 | 0.8032 | 0.7902 | 0.77 | 0.782 | 0.756 | 0.748 | 0.698
10 µM, coculture fibroblast: H6019 | 0.861 | 0.849 | 0.831 | 0.807 | 0.784 | 0.772 | 0.729 | 0.694 | 0.672
10 µM, coculture fibroblast: H6076 | 0.905 | 0.945 | 0.906 | 0.905 | 0.85 | 0.831 | 0.803 | 0.791 | 0.813
10 µM, coculture fibroblast: H6231 | 0.861 | 0.919 | 0.893 | 0.887 | 0.826 | 0.809 | 0.76 | 0.73 | 0.734
10 µM, coculture fibroblast: HADF | 0.855 | 0.798 | 0.742 | 0.719 | 0.667 | 0.66 | 0.624 | 0.603 | 0.554
10 µM, coculture fibroblast: HCFa | 0.845 | 0.816 | 0.746 | 0.708 | 0.64 | 0.63 | 0.5784 | 0.541 | 0.502
10 µM, coculture fibroblast: HCPF | 0.839 | 0.9592 | 0.8796 | 0.853 | 0.809 | 0.78287 | 0.7386 | 0.733 | 0.723
10 µM, coculture fibroblast: HHSteC | 0.867 | 0.8381 | 0.7733 | 0.737 | 0.692 | 0.683 | 0.627 | 0.601 | 0.556
10 µM, coculture fibroblast: HMF | 0.802 | 0.967 | 0.87 | 0.826 | 0.769 | 0.744 | 0.686 | 0.676 | 0.652
10 µM, coculture fibroblast: HPFa | 0.926 | 0.897 | 0.844 | 0.786 | 0.757 | 0.75 | 0.694 | 0.675 | 0.607
10 µM, coculture fibroblast: HUF | 0.881 | 0.809 | 0.768 | 0.724 | 0.683 | 0.676 | 0.633 | 0.613 | 0.595
10 µM, coculture fibroblast: Hs5 | 0.978 | 0.967 | 0.887 | 0.865 | 0.813 | 0.792 | 0.77 | 0.737 | 0.755
10 µM, coculture fibroblast: Hs27A | 0.86494 | 0.827 | 0.751 | 0.74 | 0.678 | 0.677 | 0.653 | 0.632 | 0.6
10 µM, coculture fibroblast: Hs343T | 0.857 | 0.9783 | 0.896 | 0.845 | 0.766 | 0.741 | 0.703 | 0.685 | 0.65
10 µM, coculture fibroblast: WS1 | 0.835 | 0.743 | 0.672 | 0.631 | 0.582 | 0.544 | 0.513 | 0.481 | 0.459
100 µM, coculture fibroblast: C12385 | 0.8779 | 0.679 | 0.61 | 0.5528 | 0.491 | 0.47 | 0.4298 | 0.403 | 0.3874
100 µM, coculture fibroblast: H6013 | 0.873 | 0.748 | 0.669 | 0.62 | 0.601 | 0.597 | 0.551 | 0.527 | 0.461
100 µM, coculture fibroblast: H6019 | 0.828 | 0.7134 | 0.6248 | 0.53 | 0.4659 | 0.43 | 0.384 | 0.357 | 0.34
100 µM, coculture fibroblast: H6076 | 0.96 | 0.885 | 0.942 | 0.845 | 0.921 | 0.927 | 0.896 | 0.887 | 0.951
100 µM, coculture fibroblast: H6231 | 0.897 | 0.939 | 0.882 | 0.876 | 0.786 | 0.771 | 0.733 | 0.715 | 0.728
100 µM, coculture fibroblast: HADF | 0.932 | 0.775 | 0.716 | 0.678 | 0.636 | 0.614 | 0.563 | 0.543 | 0.48
100 µM, coculture fibroblast: HCFa | 0.911 | 0.7893 | 0.719 | 0.654 | 0.589 | 0.577 | 0.528 | 0.499 | 0.432
100 µM, coculture fibroblast: HCPF | 0.879 | 0.818 | 0.927 | 0.91 | 0.839 | 0.817 | 0.77 | 0.762 | 0.752
100 µM, coculture fibroblast: HHSteC | 0.922 | 0.862 | 0.816 | 0.764 | 0.726 | 0.726 | 0.647 | 0.627 | 0.553
100 µM, coculture fibroblast: HMF | 0.883 | 0.804 | 0.924 | 0.898 | 0.838 | 0.823 | 0.765 | 0.749 | 0.73
100 µM, coculture fibroblast: HPFa | 0.973 | 0.8158 | 0.7877 | 0.68911 | 0.656 | 0.653 | 0.591 | 0.56 | 0.49
100 µM, coculture fibroblast: HUF | 0.958 | 0.821 | 0.754 | 0.71 | 0.65 | 0.641 | 0.584 | 0.575 | 0.562
100 µM, coculture fibroblast: Hs5 | 0.88 | 0.881 | 0.837 | 0.821 | 0.732 | 0.715 | 0.7 | 0.674 | 0.717
100 µM, coculture fibroblast: Hs27A | 0.891 | 0.764 | 0.715 | 0.691 | 0.628 | 0.611 | 0.582 | 0.566 | 0.495
100 µM, coculture fibroblast: Hs343T | 0.899 | 0.918 | 0.976 | 0.956 | 0.888 | 0.88 | 0.834 | 0.827 | 0.8223
100 µM, coculture fibroblast: WS1 | 0.8624 | 0.631 | 0.5249 | 0.431 | 0.374 | 0.341 | 0.312 | 0.29 | 0.282
